{"sequences": {"note": "Protein sequences, listed by entry. Tags and fused reporters are not part of them.", "UniProt P23292": "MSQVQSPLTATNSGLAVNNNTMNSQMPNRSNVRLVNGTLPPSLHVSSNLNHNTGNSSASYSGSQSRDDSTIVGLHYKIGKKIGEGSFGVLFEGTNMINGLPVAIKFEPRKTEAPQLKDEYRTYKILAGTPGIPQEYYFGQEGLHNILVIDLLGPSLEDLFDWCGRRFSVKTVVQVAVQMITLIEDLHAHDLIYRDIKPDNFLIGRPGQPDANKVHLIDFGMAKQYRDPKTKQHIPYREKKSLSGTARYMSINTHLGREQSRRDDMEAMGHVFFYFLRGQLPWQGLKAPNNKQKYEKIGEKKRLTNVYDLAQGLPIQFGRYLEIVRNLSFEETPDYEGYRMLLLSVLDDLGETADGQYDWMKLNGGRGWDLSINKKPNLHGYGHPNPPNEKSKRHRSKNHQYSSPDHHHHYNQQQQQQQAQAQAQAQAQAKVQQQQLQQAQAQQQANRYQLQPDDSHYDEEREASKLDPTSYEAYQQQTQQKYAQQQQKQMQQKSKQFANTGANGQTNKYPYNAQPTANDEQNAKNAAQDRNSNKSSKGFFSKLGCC", "UniProt P29311": "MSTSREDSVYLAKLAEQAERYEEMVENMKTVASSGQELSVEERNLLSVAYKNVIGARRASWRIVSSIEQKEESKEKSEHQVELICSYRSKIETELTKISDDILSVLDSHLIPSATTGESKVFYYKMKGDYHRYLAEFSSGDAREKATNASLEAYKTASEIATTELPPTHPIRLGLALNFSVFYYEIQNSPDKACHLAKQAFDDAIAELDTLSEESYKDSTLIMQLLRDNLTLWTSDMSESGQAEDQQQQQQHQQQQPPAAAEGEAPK", "UniProt P23291": "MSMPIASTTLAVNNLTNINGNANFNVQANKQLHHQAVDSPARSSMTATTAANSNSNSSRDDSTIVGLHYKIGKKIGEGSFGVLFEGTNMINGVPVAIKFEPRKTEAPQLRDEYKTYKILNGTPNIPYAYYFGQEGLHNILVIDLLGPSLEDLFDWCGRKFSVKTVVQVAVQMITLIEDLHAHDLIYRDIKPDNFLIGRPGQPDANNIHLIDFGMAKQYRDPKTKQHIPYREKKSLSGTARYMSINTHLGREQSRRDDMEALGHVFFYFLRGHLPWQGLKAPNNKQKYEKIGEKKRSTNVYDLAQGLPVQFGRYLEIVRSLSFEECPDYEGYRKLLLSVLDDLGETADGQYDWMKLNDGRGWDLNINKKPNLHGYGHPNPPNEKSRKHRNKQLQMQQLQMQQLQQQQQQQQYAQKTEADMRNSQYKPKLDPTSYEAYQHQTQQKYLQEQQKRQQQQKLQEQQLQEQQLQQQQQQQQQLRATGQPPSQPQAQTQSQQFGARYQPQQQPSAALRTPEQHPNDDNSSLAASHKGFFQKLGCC", "UniProt Q03640": "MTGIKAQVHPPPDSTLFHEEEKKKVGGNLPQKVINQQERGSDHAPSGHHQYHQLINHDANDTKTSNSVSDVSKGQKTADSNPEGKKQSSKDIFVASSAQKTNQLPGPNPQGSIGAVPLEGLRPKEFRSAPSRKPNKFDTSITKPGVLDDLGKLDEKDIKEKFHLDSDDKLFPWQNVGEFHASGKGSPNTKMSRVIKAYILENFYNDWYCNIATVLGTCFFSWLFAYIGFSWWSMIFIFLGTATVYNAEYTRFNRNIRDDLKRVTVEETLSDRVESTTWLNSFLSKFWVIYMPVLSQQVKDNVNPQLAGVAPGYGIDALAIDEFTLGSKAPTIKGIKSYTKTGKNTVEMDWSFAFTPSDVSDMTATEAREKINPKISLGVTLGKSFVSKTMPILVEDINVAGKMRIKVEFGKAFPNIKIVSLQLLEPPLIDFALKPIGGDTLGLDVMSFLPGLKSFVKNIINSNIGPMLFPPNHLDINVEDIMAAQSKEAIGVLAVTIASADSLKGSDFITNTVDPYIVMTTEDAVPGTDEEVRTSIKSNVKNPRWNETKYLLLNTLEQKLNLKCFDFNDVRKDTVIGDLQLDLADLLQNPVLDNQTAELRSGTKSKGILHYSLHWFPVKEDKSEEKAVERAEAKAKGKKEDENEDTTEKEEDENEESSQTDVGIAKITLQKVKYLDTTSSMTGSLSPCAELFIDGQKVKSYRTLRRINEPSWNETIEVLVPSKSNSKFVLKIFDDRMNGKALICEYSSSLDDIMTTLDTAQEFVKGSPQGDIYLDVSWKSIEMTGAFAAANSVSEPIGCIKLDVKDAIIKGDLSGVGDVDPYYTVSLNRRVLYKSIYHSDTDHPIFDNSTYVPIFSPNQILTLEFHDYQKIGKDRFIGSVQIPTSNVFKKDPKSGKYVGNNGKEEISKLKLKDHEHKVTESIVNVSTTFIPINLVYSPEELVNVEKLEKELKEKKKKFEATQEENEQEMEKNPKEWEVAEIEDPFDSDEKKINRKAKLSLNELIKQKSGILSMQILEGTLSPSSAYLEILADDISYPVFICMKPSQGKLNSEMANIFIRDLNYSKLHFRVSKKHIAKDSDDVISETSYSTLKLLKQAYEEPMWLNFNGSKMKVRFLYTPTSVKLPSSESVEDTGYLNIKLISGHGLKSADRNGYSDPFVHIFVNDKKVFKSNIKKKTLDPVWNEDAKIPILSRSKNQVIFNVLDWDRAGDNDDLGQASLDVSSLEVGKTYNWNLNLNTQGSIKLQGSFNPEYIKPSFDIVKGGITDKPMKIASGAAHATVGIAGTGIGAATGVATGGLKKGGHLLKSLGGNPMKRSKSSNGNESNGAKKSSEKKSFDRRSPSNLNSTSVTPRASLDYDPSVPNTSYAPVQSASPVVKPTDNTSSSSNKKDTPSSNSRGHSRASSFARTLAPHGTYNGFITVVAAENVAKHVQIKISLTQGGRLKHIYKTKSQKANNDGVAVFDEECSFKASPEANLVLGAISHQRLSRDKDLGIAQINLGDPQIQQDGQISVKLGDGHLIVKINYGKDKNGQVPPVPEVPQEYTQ"}, "source": "paper PMC7466973", "key": {"[1]": {"molecular_target": "T1, Wsc2p-GFP (S. cerevisiae) (UniProt P53832)", "T1 sequence": "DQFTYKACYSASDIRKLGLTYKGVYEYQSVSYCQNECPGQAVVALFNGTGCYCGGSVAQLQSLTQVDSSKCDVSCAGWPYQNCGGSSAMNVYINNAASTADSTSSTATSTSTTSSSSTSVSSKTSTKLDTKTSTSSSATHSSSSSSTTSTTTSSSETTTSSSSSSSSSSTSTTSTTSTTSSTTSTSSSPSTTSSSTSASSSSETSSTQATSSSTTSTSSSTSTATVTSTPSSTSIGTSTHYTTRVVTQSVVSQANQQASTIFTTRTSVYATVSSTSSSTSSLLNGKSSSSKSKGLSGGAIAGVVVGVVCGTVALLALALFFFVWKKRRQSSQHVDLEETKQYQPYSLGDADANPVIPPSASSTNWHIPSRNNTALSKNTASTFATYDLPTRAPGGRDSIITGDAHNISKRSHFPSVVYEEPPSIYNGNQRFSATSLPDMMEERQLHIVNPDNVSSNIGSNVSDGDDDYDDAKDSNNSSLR", "test": "affinity purification with mass spectrometry; IP-MS of endogenously expressed GFP-tagged baits from total yeast protein extracts; lysate cross-linked with 1 mM DSP on ice, 1% digitonin, capture on uMACS microbeads and MACS columns, on-bead trypsin digestion, Orbitrap Elite; untagged BY4742 as control; valid with two or more unique peptides of >=95% probability"}, "[2]": {"molecular_target": "T2, Wsc3p-GFP (S. cerevisiae) (UniProt Q12215)", "T2 sequence": "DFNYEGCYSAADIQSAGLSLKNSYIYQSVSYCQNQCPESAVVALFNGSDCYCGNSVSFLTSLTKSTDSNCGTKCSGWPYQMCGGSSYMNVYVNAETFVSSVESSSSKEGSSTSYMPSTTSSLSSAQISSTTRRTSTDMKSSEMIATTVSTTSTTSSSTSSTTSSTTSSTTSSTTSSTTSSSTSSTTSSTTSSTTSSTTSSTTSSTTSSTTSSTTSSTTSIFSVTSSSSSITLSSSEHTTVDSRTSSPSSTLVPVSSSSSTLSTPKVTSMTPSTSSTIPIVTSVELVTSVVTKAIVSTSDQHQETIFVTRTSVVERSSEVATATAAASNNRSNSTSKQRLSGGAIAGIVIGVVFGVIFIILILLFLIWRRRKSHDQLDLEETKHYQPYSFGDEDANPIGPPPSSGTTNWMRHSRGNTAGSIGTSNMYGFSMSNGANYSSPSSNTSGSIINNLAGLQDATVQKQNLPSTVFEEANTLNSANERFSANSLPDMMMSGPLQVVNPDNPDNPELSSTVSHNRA", "test": "affinity purification with mass spectrometry; IP-MS of endogenously expressed GFP-tagged baits from total yeast protein extracts; lysate cross-linked with 1 mM DSP on ice, 1% digitonin, capture on uMACS microbeads and MACS columns, on-bead trypsin digestion, Orbitrap Elite; untagged BY4742 as control; valid with two or more unique peptides of >=95% probability"}}, "note": "No constants are given. Whether binding was seen depends on the method and setting. Binding seen in cells or lysates may run through a third protein. These calls come from enrichment with a bait or labelling near it, and not all partners need be listed. Where a sequence is shown, tags or fusion partners need not be part of it.", "data": [{"molecule": "Yck2p (endogenous) (from UniProt P23292 1-546)", "values": [{"measurement": "binding", "setting": "[1]", "value": "binds"}]}, {"molecule": "Bmh1p (endogenous) (from UniProt P29311 1-267)", "values": [{"measurement": "binding", "setting": "[2]", "value": "binds"}]}, {"molecule": "Yck1p (endogenous) (from UniProt P23291 1-538)", "values": [{"measurement": "binding", "setting": "[1]", "value": "binds"}, {"measurement": "binding", "setting": "[2]", "value": "binds"}]}, {"molecule": "Tcb3p (endogenous) (from UniProt Q03640 1-1545)", "values": [{"measurement": "binding", "setting": "[1]", "value": "binds"}, {"measurement": "binding", "setting": "[2]", "value": "binds"}]}, {"molecule": "Ras2p (endogenous) (protein, UniProt P01120 1-322) MPLNKSNIREYKLVVVGGGGVGKSALTIQLTQSHFVDEYDPTIEDSYRKQVVIDDEVSILDILDTAGQEEYSAMREQYMRNGEGFLLVYSITSKSSLDELMTYYQQILRVKDTDYVPIVVVGNKSDLENEKQVSYQDGLNMAKQMNAPFLETSAKQAINVEEAFYTLARLVRDEGGKYNKTLTENDNSKQTSQDTKGSGANSVPRNSGGHRKMSNAANGKNVNSSTTVVNARNASIESKTGLAGNQATNGKTQTDRTNIDNSTGQAGQANAQSANTVNNRVNNNSKAGQVSNAKQARKQQAAPGGNTSEASKSGSGGCCIIS", "values": [{"measurement": "binding", "setting": "[1]", "value": "binds"}, {"measurement": "binding", "setting": "[2]", "value": "binds"}]}, {"molecule": "Hek2p (endogenous) (protein, UniProt P38199 1-381) MSQFFEAATPVAIPTNNTNGGSSDAGSAATGGAPVVGTTAQPTINHRLLLSLKEAAKIIGTKGSTISRIRAANAVKIGISEKVPGCSDRILSCAGNVINVANAIGDIVDVLNKRNPENEDAAEGEAEEHYYFHFLNHILPAPSKDEIRDLQQLEDIGYVRLIVANSHISSIIGKAGATIKSLINKHGVKIVASKDFLPASDERIIEIQGFPGSITNVLIEISEIILSDVDVRFSTERSYFPHLKKSSGEPTSPSTSSNTRIELKIPELYVGAIIGRGMNRIKNLKTFTKTNIVVERKDDDDKDENFRKFIITSKFPKNVKLAESMLLKNLNTEIEKRENYKRKLEAAEGDATVVTERSDSASFLEEKEEPQENHDNKEEQS", "values": [{"measurement": "binding", "setting": "[1]", "value": "binds"}]}]}
